Like-named read-outs stand apart in the source and are kept apart here. These are yes or no findings as the source states them, for the method shown. In cells and extracts the contact can be indirect. Binding calls can cover weak binding; strength is not graded here.
Tests used:
LEPROTL1 R90A (human) [1] = target: LEPROTL1 R90A (human) (UniProt O95214); test: co-IP
LEPROTL1 R90A (human) [2] = target: LEPROTL1 R90A (human) (UniProt O95214); test: co-IP; remark: listed apart in the source

The chains behind the UniProt entries cited, without tags or fusion partners. Where a name states a change or a piece, a line headed by the entry shows the natural chain unless it says otherwise.
UniProt O95214: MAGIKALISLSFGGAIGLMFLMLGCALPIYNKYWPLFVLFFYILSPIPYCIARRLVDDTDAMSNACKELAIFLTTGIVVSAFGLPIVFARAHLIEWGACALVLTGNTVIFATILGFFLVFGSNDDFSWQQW

- binding (LEPROTL1 R90A (human) [1]): binds
- binding (LEPROTL1 R90A (human) [2]): binds
Substance: EGFR (from UniProt P00533 25-1210) (receptor)
